## Percent effect of library compounds

Sequences of proteins named here, by UniProt entry; tags and fusion partners are left off.
UniProt P9WPC5, whole entry: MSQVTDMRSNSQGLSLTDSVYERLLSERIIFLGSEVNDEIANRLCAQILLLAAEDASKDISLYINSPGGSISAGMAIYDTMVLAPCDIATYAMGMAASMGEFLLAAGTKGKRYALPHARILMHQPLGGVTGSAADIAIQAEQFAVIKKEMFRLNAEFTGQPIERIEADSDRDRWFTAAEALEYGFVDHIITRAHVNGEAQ
UniProt P9WPC3, whole entry partner: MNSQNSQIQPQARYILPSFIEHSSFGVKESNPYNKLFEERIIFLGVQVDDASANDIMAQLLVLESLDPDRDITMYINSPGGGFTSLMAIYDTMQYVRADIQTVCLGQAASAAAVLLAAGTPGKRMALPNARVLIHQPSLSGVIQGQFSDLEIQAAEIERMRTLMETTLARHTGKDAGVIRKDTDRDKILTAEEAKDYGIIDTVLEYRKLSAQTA
UniProt P9WFT3, whole entry: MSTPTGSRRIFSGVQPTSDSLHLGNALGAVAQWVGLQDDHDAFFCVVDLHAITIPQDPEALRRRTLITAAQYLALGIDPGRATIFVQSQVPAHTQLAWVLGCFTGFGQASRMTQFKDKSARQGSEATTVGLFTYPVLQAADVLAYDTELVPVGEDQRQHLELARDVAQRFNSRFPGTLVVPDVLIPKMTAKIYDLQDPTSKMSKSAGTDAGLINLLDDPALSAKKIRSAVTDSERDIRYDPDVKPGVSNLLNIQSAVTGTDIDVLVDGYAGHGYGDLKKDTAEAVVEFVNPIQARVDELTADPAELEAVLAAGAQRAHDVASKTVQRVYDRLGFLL
UniProt P9WNZ1, whole entry: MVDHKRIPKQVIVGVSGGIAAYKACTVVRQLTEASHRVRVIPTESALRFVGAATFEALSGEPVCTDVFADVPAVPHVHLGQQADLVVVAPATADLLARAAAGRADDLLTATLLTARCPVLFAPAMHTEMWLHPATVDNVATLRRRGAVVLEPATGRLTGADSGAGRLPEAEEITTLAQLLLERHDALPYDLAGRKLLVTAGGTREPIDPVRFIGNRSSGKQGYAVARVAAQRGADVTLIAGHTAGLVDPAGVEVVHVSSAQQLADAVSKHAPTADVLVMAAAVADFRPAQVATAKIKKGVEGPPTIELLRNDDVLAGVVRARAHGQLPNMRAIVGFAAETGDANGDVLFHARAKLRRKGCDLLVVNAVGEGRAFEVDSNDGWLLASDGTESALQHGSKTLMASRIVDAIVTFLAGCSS

A: 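ClpP1P2, Mycobacterium tuberculosis (UniProt P9WPC5 and UniProt P9WPC3). Protease assay of ClpP1P2, read by the AMC dye that it sets free. Compounds at 50 µM. Direction is inferred from only a few compounds that gave an IC50; most scored high, so higher reads as stronger inhibition. Most other retested compounds had strongly negative values. Size under these conditions: about 69,000 compounds, about 10 of them at 50% or above in at least one test.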
B: 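Assay of Toxoplasma gondii numbers, read through their beta-galactosidase reporter with a colour substrate. Tested at 10 µM. The record gives no direction; the compounds picked for IC50 retests had high values, so higher reads as fewer parasites. Size under these conditions: about 67,000 compounds, about 260 of them at 50% or above in at least one test.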
C: 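Tryptophan-tRNA ligase, Mycobacterium tuberculosis (UniProt P9WFT3). Enzyme assay of tryptophanyl-tRNA synthetase; the read-out is not stated. Concentration: 10 µM. Higher most likely means stronger inhibition; the record gives no direction and few retests gave an IC50. Of about 65,000 compounds tested this way, about 64 (0.098%) reached 50% or more in at least one test.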
D: 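Coenzyme A biosynthesis protein CoaBC, Mycobacterium tuberculosis (UniProt P9WNZ1). Enzyme assay of CoaBC with a phosphate dye (Biomol Green) read at 650 nm. Tested at 30 µM. Direction is inferred from only a few compounds that gave an IC50; most scored high, so higher reads as stronger inhibition. Most strong results did not repeat in a second test. Size under these conditions: about 67,000 compounds, about 40 of them at 50% or above in at least one test.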

Values are the deposited “Percent Effect”, in %. The record does not define 0% and 100%; most values in the screen are far below 50% and negative numbers occur (in some assays of this library far below -100). Compounds were drawn at random from those tested, without regard to their results. A dash means the value is not listed here; it may have been measured.

- O=C(c1cccs1)N1CC[C@H](O)[C@@H]1Cc1ccccc1 : A: 4.915%; B: 3.379%; C: -4.046%; D: -3.628%
- OCC1(NCc2cnc(-c3ccccn3)s2)CCOCC1 : A: -11.7%; B: 6.334%; C: 2.369%; D: 6.59%
- O=C(O)C(F)(F)F.OCCOCc1n[nH]c2c1CN(Cc1ccccn1)C2 : B: -11.82%
- Cc1csc(CN2CCC3(CC2)COC(COc2ccccn2)C3)n1 (stereo unspecified) : A: -4.873%; B: -8.461%; D: 4.579%
- Cn1c(CS(=O)(=O)Cc2cccc(Cl)c2)cc(=O)n(C)c1=O : A: 11.6%; B: 16.65%; C: 6.706%; D: 7.066%
- CC(C)(O)CCc1ccc(C(=O)N2CCN(CCS(C)(=O)=O)CC2)cc1 : A: -2.561%; B: -8.862%; C: 7.991%; D: 0.2404%
- COc1cc(N2C[C@H](C(=O)N3CCCC3)[C@@H]3CCO[C@@H]3C2)ncn1 : A: -17.79%; C: 1.652%; D: 1.11%
- Br.Cc1cccc(N(CC(=O)c2ccccc2)C2=NCCCCC2)c1 : B: 14.8%
- O=C(O)C(F)(F)F.O=C(c1ccccn1)N1CCOC2(COCCN(Cc3cc[nH]n3)C2)C1 (stereo unspecified) : B: -11.8%
- Cc1ccccc1OCCN(C)C(=O)NC(C)c1nncn1C (stereo unspecified) : A: -13.78%; B: -6.866%; C: 0.298%; D: 1.567%
- CC[C@H](C)[C@H](N)C(=O)N1CC(=O)c2sc(NCc3ccccc3)nc2C1 : A: -7.568%; B: 1.331%; D: -1.566%
- Cc1cc(-n2cccn2)ccc1CN1C[C@@H](CN(C)C)[C@@H](CO)C1 : A: -16.64%; B: -3.84%; C: -2.217%; D: 4.3%
- COCC1CN(Cc2cc(C)on2)Cc2cn(CC3CC3)nc21 (stereo unspecified) : A: -30.25%; B: 8.498%; C: -3.996%; D: 1.935%
- COc1ccc(C2CCCCCN2CCCNS(C)(=O)=O)cc1 (stereo unspecified) : A: -6.693%; B: -0.2651%; C: -3.553%; D: 1.05%
- CC(C)c1ccccc1OCCNC(=O)N1CCC(CC(N)=O)CC1 : A: -6.465%; B: 1.836%; C: -0.3068%; D: 4.459%
- O=C(Cc1ccccc1C(F)(F)F)N1CCC2(CC1)OCCCC2O (stereo unspecified) : A: -8.096%; B: 0.9612%; C: -0.06473%; D: 0.7229%
- CCC[C@@H]1CN(C(=O)c2ccccc2-c2ccccc2)C[C@H]1N(C)C : A: 4.757%; B: -8.53%; C: -2.407%; D: -1.978%
- COc1cccc(-c2cc(C3CCCNC3)ccn2)c1 (stereo unspecified) : A: -0.3841%; B: 10.79%; C: -4.137%; D: 6.76%
- [H][C@@]12CCN(C)[C@]1([H])CN(C(=O)COCc1nc3cc(F)ccc3[nH]1)C2 : B: -29.78%

Once more, the final 2:

structure	A	B	C	D
COc1cccc(-c2cc(C3CCCNC3)ccn2)c1 (stereo unspecified)	-0.3841	10.79	-4.137	6.76
[H][C@@]12CCN(C)[C@]1([H])CN(C(=O)COCc1nc3cc(F)ccc3[nH]1)C2	-	-29.78	-	-

Data taken from ChEMBL document CHEMBL3988442, “University of Dundee, Small-Polar-MMV Screening Library” (2021).